Paper PMC3407747

Chains of the proteins cited; added tags and fusions are not shown. Residues count along the entry.
UniProt P19491, residues 22-545: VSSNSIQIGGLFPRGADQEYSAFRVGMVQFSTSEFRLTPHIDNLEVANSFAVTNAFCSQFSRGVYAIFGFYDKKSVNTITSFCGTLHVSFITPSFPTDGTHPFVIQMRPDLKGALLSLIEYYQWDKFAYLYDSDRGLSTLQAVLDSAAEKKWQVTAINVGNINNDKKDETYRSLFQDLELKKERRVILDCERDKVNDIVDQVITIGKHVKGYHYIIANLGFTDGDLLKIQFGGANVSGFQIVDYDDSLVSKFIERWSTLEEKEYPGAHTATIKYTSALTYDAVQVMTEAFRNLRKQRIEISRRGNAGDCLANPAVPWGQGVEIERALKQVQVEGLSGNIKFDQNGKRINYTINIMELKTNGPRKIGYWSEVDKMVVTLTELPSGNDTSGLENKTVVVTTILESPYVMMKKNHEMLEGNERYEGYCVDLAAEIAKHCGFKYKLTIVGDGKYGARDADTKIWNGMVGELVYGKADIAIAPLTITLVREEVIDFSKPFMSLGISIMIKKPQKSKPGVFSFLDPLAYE
UniProt P19490, residues 19-538: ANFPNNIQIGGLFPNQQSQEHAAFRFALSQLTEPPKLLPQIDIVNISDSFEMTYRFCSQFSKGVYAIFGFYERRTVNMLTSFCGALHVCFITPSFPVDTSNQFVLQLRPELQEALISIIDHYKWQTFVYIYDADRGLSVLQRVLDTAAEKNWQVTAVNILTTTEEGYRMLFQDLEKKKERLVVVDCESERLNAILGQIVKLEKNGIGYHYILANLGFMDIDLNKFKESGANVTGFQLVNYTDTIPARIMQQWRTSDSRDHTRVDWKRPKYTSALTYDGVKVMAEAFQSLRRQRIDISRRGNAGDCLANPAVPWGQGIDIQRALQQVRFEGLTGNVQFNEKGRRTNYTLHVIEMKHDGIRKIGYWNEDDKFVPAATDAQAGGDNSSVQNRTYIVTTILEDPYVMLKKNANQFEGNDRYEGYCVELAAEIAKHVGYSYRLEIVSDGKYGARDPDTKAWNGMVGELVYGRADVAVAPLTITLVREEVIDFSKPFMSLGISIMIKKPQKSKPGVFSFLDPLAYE
UniProt P04797: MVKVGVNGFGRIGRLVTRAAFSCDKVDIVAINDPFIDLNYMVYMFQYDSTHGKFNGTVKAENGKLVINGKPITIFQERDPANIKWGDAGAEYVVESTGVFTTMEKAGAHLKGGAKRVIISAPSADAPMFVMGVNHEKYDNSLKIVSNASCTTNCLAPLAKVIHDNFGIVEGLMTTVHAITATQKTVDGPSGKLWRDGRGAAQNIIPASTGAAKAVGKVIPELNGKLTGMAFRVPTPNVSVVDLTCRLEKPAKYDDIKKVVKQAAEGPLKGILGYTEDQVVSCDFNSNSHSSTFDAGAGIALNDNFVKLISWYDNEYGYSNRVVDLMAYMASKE

How the values were obtained:
GST-GluR2NT (V22-E545) = GST-GluR2NT (V22-E545) (UniProt P19491); test: affinity purification with mass spectrometry; GST fusion proteins used to pull down proteins from solubilized rat hippocampal tissue; SDS-PAGE, Coomassie staining, ~37 kD band identified by LC-MS/MS; only the target purified
GST-GluR1NT (A19-E538) = GST-GluR1NT (A19-E538) (UniProt P19490); test: as above

binding (GST-GluR2NT (V22-E545)): binds | binding (GST-GluR1NT (A19-E538)): no binding
Substance: GAPDH (glyceraldehyde-3-phosphate dehydrogenase), rat, endogenous (from UniProt P04797 1-333) (enzyme)

Results are given in words; binding and its absence hold for the method and conditions named. In cells and extracts the contact can be indirect. These calls come from enrichment with a bait or labelling near it, and not all partners need be listed. For some assays here: No binding means not detected with the bait.
